Assay results taken from the supplement of paper PMC12823440, “Inhibitors supercharge kinase turnover through native proteolytic circuits” (Nature, 2025).
Structures can show the parent of a compound that is named as a salt. The list shows a part of the results. The calls rarely recur for the same compound in another form.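 Kinases, fused to nanoluciferase, were expressed in K562 cells; luminescence was measured every 4 h from 2 to 18 h as percent of control (DMSO = 100%, positive control = 0%). A time point is decreased if signal falls significantly (2 sigma). Hits were called by the authors by a rule that is not shown; the count of time points alone does not decide it.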

Chains of the proteins cited; added tags and fusions are not shown. Lines headed by an entry give the natural chain unless they say otherwise; changes in a name come on top.
UniProt Q9UQM7, whole entry: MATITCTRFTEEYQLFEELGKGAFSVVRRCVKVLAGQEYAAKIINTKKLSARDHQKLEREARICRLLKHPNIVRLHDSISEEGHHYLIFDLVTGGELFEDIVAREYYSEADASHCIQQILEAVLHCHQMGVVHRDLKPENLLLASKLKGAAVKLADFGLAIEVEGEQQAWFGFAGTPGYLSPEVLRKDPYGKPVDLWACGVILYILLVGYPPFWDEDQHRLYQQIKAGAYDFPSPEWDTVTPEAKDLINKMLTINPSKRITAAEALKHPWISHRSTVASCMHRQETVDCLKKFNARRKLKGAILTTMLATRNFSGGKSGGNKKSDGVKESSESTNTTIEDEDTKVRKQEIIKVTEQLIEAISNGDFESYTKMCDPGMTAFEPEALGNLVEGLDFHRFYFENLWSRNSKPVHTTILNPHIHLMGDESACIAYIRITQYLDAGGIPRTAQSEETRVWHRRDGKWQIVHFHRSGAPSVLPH
UniProt Q13555: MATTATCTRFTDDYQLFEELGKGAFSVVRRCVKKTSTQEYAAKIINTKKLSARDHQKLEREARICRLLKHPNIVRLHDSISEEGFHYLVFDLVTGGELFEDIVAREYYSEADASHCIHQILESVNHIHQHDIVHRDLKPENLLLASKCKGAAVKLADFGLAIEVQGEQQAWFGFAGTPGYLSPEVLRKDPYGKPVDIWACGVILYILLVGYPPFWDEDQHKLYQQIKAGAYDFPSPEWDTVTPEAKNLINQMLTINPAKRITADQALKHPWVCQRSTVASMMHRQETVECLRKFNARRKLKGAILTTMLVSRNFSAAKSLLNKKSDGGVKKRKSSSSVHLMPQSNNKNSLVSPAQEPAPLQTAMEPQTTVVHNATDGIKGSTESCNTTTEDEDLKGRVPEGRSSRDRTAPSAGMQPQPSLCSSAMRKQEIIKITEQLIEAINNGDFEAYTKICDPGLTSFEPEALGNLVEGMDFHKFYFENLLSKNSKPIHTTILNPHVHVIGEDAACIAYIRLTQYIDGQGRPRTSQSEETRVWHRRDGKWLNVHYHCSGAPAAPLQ
UniProt Q15131: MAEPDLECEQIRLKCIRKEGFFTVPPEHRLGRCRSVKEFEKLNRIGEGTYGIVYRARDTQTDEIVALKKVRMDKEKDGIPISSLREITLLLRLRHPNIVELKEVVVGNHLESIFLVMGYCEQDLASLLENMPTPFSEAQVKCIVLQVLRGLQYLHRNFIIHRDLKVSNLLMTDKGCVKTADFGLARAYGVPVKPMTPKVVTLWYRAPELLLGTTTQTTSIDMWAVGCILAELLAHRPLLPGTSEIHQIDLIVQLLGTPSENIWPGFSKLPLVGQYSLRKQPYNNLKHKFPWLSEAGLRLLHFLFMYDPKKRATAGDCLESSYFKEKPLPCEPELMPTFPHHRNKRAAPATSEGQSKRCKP
UniProt Q00526: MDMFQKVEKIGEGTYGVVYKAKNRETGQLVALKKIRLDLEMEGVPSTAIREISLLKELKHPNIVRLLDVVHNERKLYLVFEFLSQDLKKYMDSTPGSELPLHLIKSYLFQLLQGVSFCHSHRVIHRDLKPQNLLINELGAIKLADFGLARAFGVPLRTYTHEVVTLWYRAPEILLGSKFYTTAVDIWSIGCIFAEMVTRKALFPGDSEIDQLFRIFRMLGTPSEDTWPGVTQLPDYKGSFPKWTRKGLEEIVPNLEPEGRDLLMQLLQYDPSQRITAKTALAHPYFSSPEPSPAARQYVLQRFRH
UniProt Q00535, whole entry, looked up: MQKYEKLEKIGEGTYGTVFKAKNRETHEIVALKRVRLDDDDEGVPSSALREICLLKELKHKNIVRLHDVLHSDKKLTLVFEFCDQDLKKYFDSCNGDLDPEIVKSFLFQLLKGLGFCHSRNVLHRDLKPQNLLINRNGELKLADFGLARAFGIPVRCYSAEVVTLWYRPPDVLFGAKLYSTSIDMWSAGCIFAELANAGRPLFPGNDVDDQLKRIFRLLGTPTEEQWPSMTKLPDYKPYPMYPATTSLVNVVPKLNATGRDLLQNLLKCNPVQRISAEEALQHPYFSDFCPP
UniProt Q00534, whole entry: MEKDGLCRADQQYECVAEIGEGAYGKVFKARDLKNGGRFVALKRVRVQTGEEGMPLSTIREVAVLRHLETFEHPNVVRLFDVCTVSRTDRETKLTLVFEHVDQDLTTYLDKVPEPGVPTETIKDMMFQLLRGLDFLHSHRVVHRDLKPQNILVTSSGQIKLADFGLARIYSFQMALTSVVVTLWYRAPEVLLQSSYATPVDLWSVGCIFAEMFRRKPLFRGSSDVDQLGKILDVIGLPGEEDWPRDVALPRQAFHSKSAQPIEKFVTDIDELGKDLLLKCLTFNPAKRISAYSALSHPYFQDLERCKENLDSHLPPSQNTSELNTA
UniProt O96017, whole entry: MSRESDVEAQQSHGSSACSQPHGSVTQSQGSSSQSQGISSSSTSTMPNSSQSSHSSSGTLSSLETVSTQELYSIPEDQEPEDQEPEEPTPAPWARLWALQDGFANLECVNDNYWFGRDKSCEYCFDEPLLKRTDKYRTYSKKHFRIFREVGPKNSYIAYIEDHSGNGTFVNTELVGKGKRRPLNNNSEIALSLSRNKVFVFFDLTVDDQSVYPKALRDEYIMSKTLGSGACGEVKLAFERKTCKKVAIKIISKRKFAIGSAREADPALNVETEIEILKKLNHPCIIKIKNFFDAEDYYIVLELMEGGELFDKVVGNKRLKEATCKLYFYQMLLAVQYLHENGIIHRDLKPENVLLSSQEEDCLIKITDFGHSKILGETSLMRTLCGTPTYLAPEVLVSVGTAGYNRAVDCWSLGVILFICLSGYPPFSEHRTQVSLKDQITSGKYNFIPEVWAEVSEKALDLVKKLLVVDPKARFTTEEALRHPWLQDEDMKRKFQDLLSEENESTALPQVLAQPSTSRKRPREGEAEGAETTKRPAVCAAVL
UniProt P07333, whole entry: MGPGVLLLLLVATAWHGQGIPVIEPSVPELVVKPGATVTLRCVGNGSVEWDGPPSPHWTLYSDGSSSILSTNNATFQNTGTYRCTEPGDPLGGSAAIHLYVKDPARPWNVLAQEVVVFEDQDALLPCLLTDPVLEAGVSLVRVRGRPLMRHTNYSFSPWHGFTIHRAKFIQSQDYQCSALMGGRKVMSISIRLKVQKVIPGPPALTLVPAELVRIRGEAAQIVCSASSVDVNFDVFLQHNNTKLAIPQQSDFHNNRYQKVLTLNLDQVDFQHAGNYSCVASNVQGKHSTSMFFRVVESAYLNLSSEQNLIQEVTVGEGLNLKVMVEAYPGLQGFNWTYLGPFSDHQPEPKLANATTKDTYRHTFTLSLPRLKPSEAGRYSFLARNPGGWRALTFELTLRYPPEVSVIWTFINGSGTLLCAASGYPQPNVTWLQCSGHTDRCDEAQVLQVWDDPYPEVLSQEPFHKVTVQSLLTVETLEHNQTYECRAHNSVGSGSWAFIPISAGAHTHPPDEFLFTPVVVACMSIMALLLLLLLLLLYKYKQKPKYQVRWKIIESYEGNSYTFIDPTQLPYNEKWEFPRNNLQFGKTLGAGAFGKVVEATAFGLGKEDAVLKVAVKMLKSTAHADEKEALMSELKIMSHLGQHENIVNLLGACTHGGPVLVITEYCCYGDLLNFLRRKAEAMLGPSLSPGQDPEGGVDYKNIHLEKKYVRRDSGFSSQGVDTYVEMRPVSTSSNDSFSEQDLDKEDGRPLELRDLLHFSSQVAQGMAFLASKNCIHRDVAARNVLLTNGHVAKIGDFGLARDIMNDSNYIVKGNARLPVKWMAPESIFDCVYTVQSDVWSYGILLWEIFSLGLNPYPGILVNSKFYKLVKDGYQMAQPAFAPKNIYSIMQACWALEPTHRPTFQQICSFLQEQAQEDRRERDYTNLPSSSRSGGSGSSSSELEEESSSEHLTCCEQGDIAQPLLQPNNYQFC
UniProt P41240: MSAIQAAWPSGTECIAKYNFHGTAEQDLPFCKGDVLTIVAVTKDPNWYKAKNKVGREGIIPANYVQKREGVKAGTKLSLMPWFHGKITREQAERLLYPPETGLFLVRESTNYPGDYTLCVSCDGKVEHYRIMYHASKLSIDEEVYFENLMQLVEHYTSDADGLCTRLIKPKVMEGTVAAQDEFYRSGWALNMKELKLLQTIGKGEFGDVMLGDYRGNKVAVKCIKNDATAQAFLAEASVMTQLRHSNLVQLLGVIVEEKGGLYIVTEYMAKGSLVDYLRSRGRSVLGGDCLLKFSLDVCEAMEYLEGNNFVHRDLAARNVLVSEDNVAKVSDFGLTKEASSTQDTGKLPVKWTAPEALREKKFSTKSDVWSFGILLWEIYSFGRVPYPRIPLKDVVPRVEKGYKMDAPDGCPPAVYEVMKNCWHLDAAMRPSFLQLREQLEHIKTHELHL
UniProt P48729: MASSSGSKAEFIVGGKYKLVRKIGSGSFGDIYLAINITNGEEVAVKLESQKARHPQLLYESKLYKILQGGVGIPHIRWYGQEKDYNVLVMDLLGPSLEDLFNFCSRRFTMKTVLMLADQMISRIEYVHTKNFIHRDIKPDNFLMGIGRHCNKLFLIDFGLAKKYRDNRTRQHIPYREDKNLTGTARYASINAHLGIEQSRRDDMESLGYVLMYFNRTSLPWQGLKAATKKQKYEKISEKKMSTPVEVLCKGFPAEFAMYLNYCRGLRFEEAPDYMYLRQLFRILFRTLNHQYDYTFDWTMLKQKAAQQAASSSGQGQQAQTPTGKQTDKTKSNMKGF
UniProt P48730: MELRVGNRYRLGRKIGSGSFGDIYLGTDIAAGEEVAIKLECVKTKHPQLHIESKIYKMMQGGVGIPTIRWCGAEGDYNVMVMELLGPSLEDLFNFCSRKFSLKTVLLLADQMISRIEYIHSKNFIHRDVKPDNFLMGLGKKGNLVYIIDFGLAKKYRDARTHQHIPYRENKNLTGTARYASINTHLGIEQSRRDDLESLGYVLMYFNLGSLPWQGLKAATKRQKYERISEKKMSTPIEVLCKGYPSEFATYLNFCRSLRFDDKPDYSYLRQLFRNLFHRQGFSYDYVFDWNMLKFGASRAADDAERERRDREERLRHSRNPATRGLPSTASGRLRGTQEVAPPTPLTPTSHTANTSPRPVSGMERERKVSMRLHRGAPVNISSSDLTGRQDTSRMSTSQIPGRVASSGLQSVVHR
UniProt Q08345: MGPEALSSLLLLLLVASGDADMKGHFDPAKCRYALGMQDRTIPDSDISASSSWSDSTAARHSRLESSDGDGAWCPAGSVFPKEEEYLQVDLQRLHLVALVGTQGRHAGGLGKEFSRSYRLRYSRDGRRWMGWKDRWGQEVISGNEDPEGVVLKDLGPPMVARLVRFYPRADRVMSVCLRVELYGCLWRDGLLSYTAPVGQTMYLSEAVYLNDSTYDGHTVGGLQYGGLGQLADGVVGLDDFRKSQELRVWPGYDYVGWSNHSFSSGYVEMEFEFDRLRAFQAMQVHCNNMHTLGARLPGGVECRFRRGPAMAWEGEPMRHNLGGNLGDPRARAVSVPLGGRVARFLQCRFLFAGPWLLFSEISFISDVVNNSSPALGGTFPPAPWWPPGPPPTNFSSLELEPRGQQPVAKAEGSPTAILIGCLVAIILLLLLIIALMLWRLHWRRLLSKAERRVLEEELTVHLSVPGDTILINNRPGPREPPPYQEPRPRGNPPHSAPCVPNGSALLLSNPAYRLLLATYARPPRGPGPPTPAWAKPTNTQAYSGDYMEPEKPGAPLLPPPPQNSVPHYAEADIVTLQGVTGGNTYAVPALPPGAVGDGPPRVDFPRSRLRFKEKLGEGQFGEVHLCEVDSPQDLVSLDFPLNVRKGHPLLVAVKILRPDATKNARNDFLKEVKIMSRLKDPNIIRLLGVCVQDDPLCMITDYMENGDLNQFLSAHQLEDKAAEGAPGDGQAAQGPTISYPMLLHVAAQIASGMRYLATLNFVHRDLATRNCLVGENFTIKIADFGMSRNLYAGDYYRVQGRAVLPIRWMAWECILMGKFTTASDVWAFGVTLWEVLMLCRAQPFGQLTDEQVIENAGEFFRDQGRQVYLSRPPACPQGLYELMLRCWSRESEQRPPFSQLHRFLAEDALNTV
UniProt Q92630: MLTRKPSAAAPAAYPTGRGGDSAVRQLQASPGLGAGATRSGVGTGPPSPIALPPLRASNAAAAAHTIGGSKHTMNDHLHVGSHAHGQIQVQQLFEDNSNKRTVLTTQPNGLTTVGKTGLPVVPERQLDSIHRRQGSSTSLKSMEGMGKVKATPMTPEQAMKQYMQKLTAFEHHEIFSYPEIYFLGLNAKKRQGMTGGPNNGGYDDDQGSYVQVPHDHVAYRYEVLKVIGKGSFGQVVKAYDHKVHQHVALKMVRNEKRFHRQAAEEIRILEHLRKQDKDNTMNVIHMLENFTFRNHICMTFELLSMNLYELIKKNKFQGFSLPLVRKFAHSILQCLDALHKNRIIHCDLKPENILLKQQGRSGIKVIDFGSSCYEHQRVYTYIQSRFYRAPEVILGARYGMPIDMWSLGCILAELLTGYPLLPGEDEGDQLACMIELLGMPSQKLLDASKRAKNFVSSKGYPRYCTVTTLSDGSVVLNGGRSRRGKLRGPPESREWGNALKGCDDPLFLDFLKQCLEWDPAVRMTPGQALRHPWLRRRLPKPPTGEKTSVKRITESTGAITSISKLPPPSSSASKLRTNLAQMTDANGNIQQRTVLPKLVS

Columns and labels:
Assay in all cases: number of time points (of 5) at which kinase-Nluc abundance scored as decreased, DMSO-normalised (count); higher = more persistent destabilization
Details in all cases: K562; 2-18 h
[1] = target: CAMK2A (UniProt Q9UQM7)
[2] = target: CAMK2G (UniProt Q13555)
[3] = target: CDK10 (UniProt Q15131)
[4] = target: CDK2 (UniProt P24941)
[5] = target: CDK3 (UniProt Q00526)
[6] = target: CDK5 (UniProt Q00535)
[7] = target: CDK6 (UniProt Q00534)
[8] = target: CHEK2 (UniProt O96017)
[9] = target: CSF1R (UniProt P07333)
[10] = target: CSK (UniProt P41240)
[11] = target: CSNK1A1 (UniProt P48729)
[12] = target: CSNK1D (UniProt P48730)
[13] = target: DDR1 (UniProt Q08345)
[14] = target: DYRK1B (UniProt Q9Y463)
[15] = target: DYRK2 (UniProt Q92630)
[16] = target: EGFR (UniProt P00533)
[17] = target: EGFR_G719S (UniProt P00533)
[18] = target: EGFR_G719S_T790M (UniProt P00533)
[19] = target: EGFR_L718V (UniProt P00533)
[20] = target: EGFR_L858R (UniProt P00533)

Measured: number of time points

CN1CCN(C2CCN(C(=O)Nc3cc(Oc4ccc(NC(=O)C5(C(=O)Nc6ccc(F)cc6)CC5)c(F)c4)ccn3)CC2)CC1 [Golvatinib] (2.5 µM)
2: [13] | [17]
4: [15]
0: [1] | [2] | [3] | [4] | [5] | [6] | [7] | [8] | [9] | [10] | [11] | [12] | [14] | [16] | [18] | [19] | [20]

COC(=O)c1ccc2c(C(=Nc3ccc(N(C)C(=O)CN4CCN(C)CC4)cc3)c3ccccc3)c(O)[nH]c2c1 [Nintedanib] (2.5 µM)
1: [13]
0: [1] | [2] | [3] | [4] | [5] | [6] | [7] | [8] | [9] | [10] | [11] | [12] | [14] | [15] | [16] | [17] | [18] | [19] | [20]

Cc1ccc2c(Nc3cccc(OC(F)(F)F)c3)nccc2c1Nc1ncccc1-c1ncnc2[nH]cnc12 (10 µM)
0: [1] | [2] | [3] | [4] | [5] | [6] | [7] | [8] | [9] | [10] | [11] | [12] | [13] | [14] | [15] | [16] | [17] | [18] | [19] | [20]

COc1ccc(Oc2cc(NCCC(F)(F)F)c3ncc(-c4ccc(C(=O)NC5CC5)c(C)c4)n3n2)c(F)c1F (2.5 µM)
0: [1] | [2] | [3] | [4] | [5] | [6] | [7] | [8] | [9] | [10] | [11] | [12] | [13] | [14] | [15] | [16] | [17] | [18] | [19] | [20]

CCOc1cc2ncc(-c3cc(N)nc(F)c3)n2cc1S(=O)(=O)C(C)(C)C (10 µM)
0: [1] | [2] | [3] | [4] | [5] | [6] | [7] | [8] | [9] | [10] | [11] | [12] | [13] | [14] | [15] | [16] | [17] | [18] | [19] | [20]

Cc1cc(CS(=O)(=O)c2ccccc2)cc(OCc2ccc(CN3CCC[C@@H]3CO)cc2)c1 [PF-543 (Citrate)] (10 µM)
0: [1] | [2] | [3] | [4] | [5] | [6] | [7] | [8] | [9] | [10] | [11] | [12] | [13] | [14] | [15] | [16] | [17] | [18] | [19] | [20]

Cn1c(=O)n(-c2ccc(C(C)(C)C#N)cc2)c2c3cc(-c4cnc5ccccc5c4)ccc3ncc21 [Dactolisib (Tosylate)] (10 µM)
4: [8] | [9] | [15]
0: [1] | [4] | [5] | [6] | [7] | [10] | [11] | [12] | [18] | [19] | [20]
1: [14] | [16]
2: [3] | [17]
3: [2] | [13]

O=C1Nc2ccccc2/C1=C/c1ccc(F)cc1 (10 µM)
0: [1] | [2] | [3] | [4] | [5] | [6] | [7] | [8] | [9] | [10] | [11] | [12] | [13] | [14] | [15] | [16] | [17] | [18] | [19] | [20]

COc1cc(CCc2cc(-c3nc4ccc(N5CCN(C)CC5)cc4[nH]3)n[nH]2)cc(OC)c1 (10 µM)
2: [2] | [12] | [13] | [14]
1: [8] | [18] | [20]
4: [15]
0: [1] | [3] | [4] | [5] | [6] | [7] | [9] | [10] | [11] | [16] | [17] | [19]

COCCOc1cc2nccc(Nc3n[nH]c(C)c3C)c2cc1S(=O)(=O)C(C)(C)C [RIP2 kinase inhibitor 2] (2.5 µM)
0: [1] | [2] | [3] | [4] | [5] | [6] | [7] | [8] | [9] | [10] | [11] | [12] | [13] | [14] | [15] | [16] | [17] | [18] | [19] | [20]

Oc1cc(O)cc(/C=C/c2ccc(O)c(O)c2)c1 [Piceatannol] (10 µM)
2: [2]
1: [3]
4: [15]
0: [1] | [4] | [5] | [6] | [7] | [10] | [12] | [16]
3: [8] | [9] | [11] | [13] | [14] | [17] | [18] | [19] | [20]

CN1CCN(C(=O)c2ccc(-c3ccc4c(C=O)c(O)ccc4c3)s2)CC1 (2.5 µM)
0: [1] | [2] | [3] | [4] | [5] | [6] | [7] | [8] | [9] | [10] | [11] | [12] | [13] | [14] | [15] | [16] | [17] | [18] | [19] | [20]

CCCCOc1c(C(=O)c2c(F)cc(C)cc2F)c[nH]c2nncc1-2 (10 µM)
0: [1] | [2] | [3] | [4] | [5] | [6] | [7] | [8] | [9] | [10] | [11] | [12] | [13] | [14] | [15] | [16] | [17] | [18] | [19] | [20]

CN1CCN(S(=O)(=O)c2ccc(-c3cnc(N)c(C(=O)Nc4cccnc4)n3)cc2)CC1 (10 µM)
0: [1] | [2] | [3] | [4] | [5] | [6] | [7] | [8] | [9] | [10] | [11] | [12] | [13] | [14] | [15] | [16] | [17] | [18] | [19] | [20]

CNC(=O)c1cc(Oc2ccc(NC(=O)Nc3cc(C(C)(C)C)nn3-c3ccc4ncccc4c3)c(F)c2)ccn1 [Rebastinib] (2.5 µM)
0: [1] | [4] | [5] | [6] | [7] | [10]
1: [14] | [19]
3: [2] | [8] | [11] | [13] | [20]
2: [3] | [12] | [16] | [17] | [18]
4: [9] | [15]

C=CC(=O)N1CC[C@H](n2nc(C#Cc3cc(OC)cc(OC)c3)c3c(N)ncnc32)C1 [Futibatinib] (10 µM)
0: [1] | [2] | [3] | [4] | [5] | [6] | [7] | [8] | [9] | [10] | [11] | [12] | [13] | [14] | [15] | [16] | [17] | [18] | [19] | [20]

O=C(c1ccc(-c2ccc(Cl)cc2)o1)N(Cc1ccccn1)c1ccc(N2CCNCC2)cc1 [MK2-IN-1 (hydrochloride)] (10 µM)
0: [1] | [2] | [4] | [5] | [6] | [7] | [9] | [10] | [11] | [12] | [14] | [16] | [17] | [18] | [19] | [20]
1: [8] | [13] | [15]
5: [3]

CC(C)c1ccc2oc3nc(N)c(C(=O)O)cc3c(=O)c2c1 [Amlexanox] (10 µM)
0: [1] | [2] | [3] | [4] | [5] | [6] | [7] | [8] | [9] | [10] | [11] | [12] | [13] | [14] | [15] | [16] | [17] | [18] | [19] | [20]

O=C(NOC[C@H](O)CO)c1ccc(F)c(F)c1Nc1ccc(I)cc1F (2.5 µM)
0: [1] | [2] | [3] | [4] | [5] | [6] | [7] | [8] | [9] | [10] | [11] | [12] | [13] | [14] | [15] | [16] | [17] | [18] | [19] | [20]

Of the compounds above, 2 have a CF3 group:
Cc1ccc2c(Nc3cccc(OC(F)(F)F)c3)nccc2c1Nc1ncccc1-c1ncnc2[nH]cnc12 (10 µM)
0: [1] | [2] | [3] | [4] | [5] | [6] | [7] | [8] | [9] | [10] | [11] | [12] | [13] | [14] | [15] | [16] | [17] | [18] | [19] | [20]

COc1ccc(Oc2cc(NCCC(F)(F)F)c3ncc(-c4ccc(C(=O)NC5CC5)c(C)c4)n3n2)c(F)c1F (2.5 µM)
0: [1] | [2] | [3] | [4] | [5] | [6] | [7] | [8] | [9] | [10] | [11] | [12] | [13] | [14] | [15] | [16] | [17] | [18] | [19] | [20]

Continuation:

CC(C)n1cnc2c(NCc3cccc(C(F)(F)F)c3)ncnc21 [Longdaysin] (10 µM)
0: [1] | [2] | [3] | [4] | [5] | [6] | [7] | [8] | [9] | [10] | [11] | [12] | [13] | [14] | [15] | [16] | [17] | [18] | [19] | [20]

COc1cc(C(=O)NC2CCN(C)CC2)ccc1Nc1ncc2c(n1)N(C1CCCC1)CC(F)(F)C(=O)N2C (10 µM)
3: [17]
0: [1] | [2] | [3] | [4] | [5] | [6] | [7] | [8] | [9] | [10] | [11] | [12] | [13] | [14] | [15] | [19] | [20]
1: [16] | [18]

COc1cc(Oc2ccnc3cc(OC)c(OC)cc23)ccc1NC(=O)NC(C)c1nccs1 (stereo not given) (2.5 µM)
0: [1] | [2] | [3] | [4] | [5] | [6] | [7] | [8] | [9] | [10] | [11] | [12] | [13] | [14] | [15] | [16] | [17] | [18] | [19] | [20]

Cc1c[nH]c(/C=C2\C(=O)Nc3ccccc32)c1CCC(=O)O (10 µM)
0: [2] | [3] | [4] | [5] | [6] | [7] | [8] | [9] | [10] | [11] | [12] | [13] | [14] | [15] | [16] | [17] | [18] | [19] | [20]
1: [1]

CC(C)=CC/C=C(\C)[C@H]1CC[C@]2(C)[C@@H]1[C@H](O)C[C@@H]1[C@@]3(C)CC[C@H](O[C@@H]4O[C@H](CO)[C@@H](O)[C@H](O)[C@H]4O[C@@H]4O[C@H](CO)[C@@H](O)[C@H](O)[C@H]4O)C(C)(C)[C@@H]3CC[C@]12C [Ginsenoside Rg5] (10 µM)
0: [1] | [2] | [3] | [4] | [5] | [6] | [7] | [8] | [9] | [10] | [11] | [12] | [13] | [14] | [15] | [16] | [17] | [18] | [19] | [20]
